Screening data, single-dose tests

Sequences of proteins named here, by UniProt entry; tags and fusion partners are left off.
UniProt P9WNZ1, whole entry: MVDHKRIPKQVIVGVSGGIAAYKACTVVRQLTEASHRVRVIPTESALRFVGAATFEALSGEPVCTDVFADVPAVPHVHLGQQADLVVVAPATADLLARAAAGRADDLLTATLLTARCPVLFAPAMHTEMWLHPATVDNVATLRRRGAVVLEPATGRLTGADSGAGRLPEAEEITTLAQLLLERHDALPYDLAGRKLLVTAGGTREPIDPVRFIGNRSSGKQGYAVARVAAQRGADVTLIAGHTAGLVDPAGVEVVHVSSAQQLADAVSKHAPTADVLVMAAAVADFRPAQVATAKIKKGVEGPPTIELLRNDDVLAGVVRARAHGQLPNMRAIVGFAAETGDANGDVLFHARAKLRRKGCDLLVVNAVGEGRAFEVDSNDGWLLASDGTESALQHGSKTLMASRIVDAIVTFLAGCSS

The values are deposited in ChEMBL (CHEMBL3988442, “University of Dundee, Small-Polar-MMV Screening Library” (2021)).

A: 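Cell assay of Leishmania donovani living inside macrophages; the read-out is not stated. Concentration: 30 µM. The record gives no direction; compounds that gave an IC50 in retests scored well above the rest, so higher reads as stronger inhibition. Size under these conditions: about 69,000 compounds, about 1,000 of them at 50% or above in at least one test.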
B: 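Coenzyme A biosynthesis protein CoaBC, Mycobacterium tuberculosis (UniProt P9WNZ1). Enzyme assay of CoaBC with a phosphate dye (Biomol Green) read at 650 nm. Tested at 30 µM. Higher reads as stronger inhibition, judged from the few compounds that gave an IC50. Most strong results did not repeat in a second test. Size under these conditions: about 67,000 compounds, about 40 of them at 50% or above in at least one test.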

Results are given as percent effect.
The record does not define 0% and 100%; most values in the screen are far below 50% and negative numbers occur (in some assays of this library far below -100).
This is an unselected part of the compounds tested.
Two or more numbers in one place are separate tests of the same structure; such repeats can differ widely.
A dash means the value is not listed here; it may have been measured.

| structure | A | B |
|---|---|---|
| `Cc1noc2nc(C3CCN(Cc4cccnc4)CC3)cc(C(F)F)c12` | - | 2.778 |
| `COc1cccc(-n2cc(-c3ccnc(N[C@@H](CO)C(C)C)n3)cn2)c1` | -8.975 | -0.7317 |
| `O=C(Nc1cccc(CN2CCOC2=O)c1)N1CCCC1` | -5.143 | 4.337 |
| `O=C(O)C(F)(F)F.[H][C@]12CCC[C@@H](CN3CCOCC3)[C@@]1([H])CN(c1ccc(C)nn1)C2` | 16.3 | - |
| `O=C(NCCc1ccc(I)s1)N1CCC1` | 0.6704 | 2.163 |
| `CCc1cc(N(C)CCC(O)c2ccccc2)n2nccc2n1` (stereo not shown) | 1.064 | -2.381 |
| `CCOCc1cnc2n1CCN(Cc1scnc1C)C2C.O=C(O)C(F)(F)F` (stereo not shown) | 4.342 | - |
| `CCOc1nnc(CNC2CCCN(c3ccc(C)nn3)C2)s1` (stereo not shown) | 29.36 | -3.44 |
| `COc1ccc(C2CCCCCN2S(=O)(=O)N(C)C)cc1` (stereo not shown) | 19.44 | 7.173 |
| `CCOC(=O)N1CCN(C(=O)c2cc(OCC)c3ccoc3c2)CC1` | -30.54 | 3.571 |
| `COCC(=O)N1CCC2(CCCN(Cc3ccc(Cl)cc3)CC2)CC1` | 2.434 | 4.099 |
| `Cc1noc(C)c1CN(C)C(=O)c1ccc2c(c1O)OC(C)(C)C2` | 1.874 | -6.21 |
| `COc1ccc(Cl)cc1C(=O)N1CCCC(n2nc(C)nc2C)C1` (stereo not shown) | -3.308 | -3.599 |
| `CCC(=O)N(CC(N)=O)Cc1cccc(Oc2ccccc2)c1` | -32.3 | -12.26 |
| `O=S(=O)(C1CC1)N1CCC2(CCCN(c3ncc(F)cn3)C2)C1` (stereo not shown) | 7.624 | 2.254 |
| `CC(O)CN1CCC(CNCc2cccc(OC(C)C)c2)CC1` (stereo not shown) | 57.47 | 3.203 |
| `[H][C@@]12CCCO[C@]1([H])[C@H](NC(=O)CC1CC1)CN(C(=O)c1ccoc1)C2` | 18.47 | - |
| `O=C(O)[C@]12CCCN(Cc3ccccn3)[C@@H]1CCN(c1cnccn1)C2` | - | 4.37 |
| `O=C1CO[C@H]2CN(Cc3ccccc3Br)C[C@@H]2N1` | - | 9.789 |
| `Cc1nc(CCNC(=O)C(N)c2c(C)n[nH]c2C)sc1C` (stereo not shown) | 7.254 | 2.155 |
| `Cn1c2c(ccc1=O)CC(NS(C)(=O)=O)CC2` (stereo not shown) | 0.7173 | 1.036 |
| `CN(C)C1CN(C(=O)Nc2cccc(OC(F)F)c2)C1` | -15.85 | -3.089 |
| `CC(=O)N(Cc1ncc(C)o1)C1CCN(Cc2sc(C)nc2C)C1` (stereo not shown) | 10.52 | 4.961 |
| `COc1ccccc1-c1nc(C(=O)N(C)C)n2ccncc12` | 43.71 | 3.684 |
| `CCCc1nnc2sc(C3CCN(CCOC)CC3)nn12` | -0.1355 | 2.222 |
| `c1csc(CN2CCC3(CCCN3CC3CC3)CC2)n1` | - | 5.285 |
| `Cc1cc(C)n(CC2CN(CC(=O)NC3(C#N)CCCC3)CCO2)n1` (stereo not shown) | 24.59 | 4.516 |
| `O=C(c1cccnc1)N1C[C@@H]2OCC(=O)N(Cc3cccnc3)[C@@H]2C1` | - | 9.051 |
| `CS(=O)(=O)N1CCC(Oc2ccc(C#N)cc2)CC1` | -99.96 | 7.233 |
| `CCCn1ncnc1C(C)NC(=O)C1CCN(C(=O)C2CC2)CC1` (stereo not shown) | -2.61 | 0 |
| `CCCN1CCC(NC(=O)c2csc(C)c2-c2ccc(C)cc2)CC1` | 1.973 | 6.821 |
| `CC(C)C(=O)N1CCN(C(=O)N(C)C)CC2(CC(=O)N(C)C2)C1` (stereo not shown) | 5.137 | 4.01 |
| `Cc1c(Br)cnn1CC(=O)Nc1ccon1` | 16.95 | 2.041 |
| `[H][C@@]12CNCC[C@]1(O)CCN(C(=O)Cc1cc(F)ccc1C)C2` | 16.47 | - |
| `CC(=O)N1CCC(n2nccc2-c2cnc(N)nc2)CC1` | 18.24 and 17.67 | 3.976 |
| `CC(C)C(=O)NS(=O)(=O)c1ccc2c(c1)N(C)CCC2` | 16.01 | 5.492 |
| `O=C1CN(C(=O)C2CCOCC2)CCN1Cc1ccc(Cl)cc1` | -40.74 | -0.7246 |
| `CN(C)Cc1n[nH]c2c1CCN(Cc1cccs1)C2.O=C(O)C(F)(F)F.O=C(O)C(F)(F)F` | 7.072 | - |
| `CN(C)C(=O)COC1COC2(CCN(c3cccc(F)c3)CC2)C1` (stereo not shown) | - | 1.269 |
| `COCCN1CCCn2c(nc(CNS(C)(=O)=O)cc2=O)C1.O=C(O)C(F)(F)F` | 7.695 | - |
| `CS(=O)(=O)N1C[C@@H](NC(=O)c2ccno2)[C@@H]2OCCC[C@@H]21` | - | 3.457 |
| `COc1ccnc(NCc2ccccc2Cn2cccn2)n1` | 23.14 | 11.21 |

Some entries from above, unchanged:

structure	A	B
CC(C)C(=O)N1CCN(C(=O)N(C)C)CC2(CC(=O)N(C)C2)C1 (stereo not shown)	5.137	4.01
CCC(=O)N(CC(N)=O)Cc1cccc(Oc2ccccc2)c1	-32.3	-12.26
CN(C)C(=O)COC1COC2(CCN(c3cccc(F)c3)CC2)C1 (stereo not shown)	-	1.269
CS(=O)(=O)N1C[C@@H](NC(=O)c2ccno2)[C@@H]2OCCC[C@@H]21	-	3.457
Cc1noc2nc(C3CCN(Cc4cccnc4)CC3)cc(C(F)F)c12	-	2.778